Data: PubChem BioAssay AID687031 (Broad Institute, 2013)
Out of some 1,400 compounds screened, about 50 (4%) were called active.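 How the source made its calls: active means fitted curve reaches 30% CPE protection at or below the top valid dose, with every test run called active; inconclusive means test runs disagree, some active and some not; inactive means every test run inactive, including effects in the wrong direction.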 The list shows a part of the results. Potency and affinity values are given separately.

experiment: Dengue virus 2 cytopathic effect protection, dose response, BHK-21 cells, ATP luminescence, cherry-pick (AID 687031); conditions: BHK-21 DENV2 CPE protection, 5 d; at 19.5 µM (top of the series) unless noted;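 further: 0% = infected DMSO wells and 100% = uninfected cell wells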

CPE protection (higher = active), inactive:
CC(C)(C)OC(=O)N1CCC[C@@H]1C(=O)N1CCC[C@@H]1C(=O)NCc1ccccc1Cl -5.38%, COC(=O)c1ccc2nc(-c3ccc(F)cc3)c(Cc3ccccc3OC)n2c1 3.1%, COc1cccc(C2(c3cccc(OC)c3)CC2C(=O)Nc2ccc(F)cc2)c1 (centres undefined) 11.7%, CCOC(=O)N1CCC(NS(=O)(=O)c2ccc(C#N)cc2)CC1 -10.4%, CC1(Cc2cccc(F)c2)C(=O)Nc2ccc(-c3cccnc3)cc21 (centres undefined) -0.308%, COc1cccc(C(=O)N2CCOCC2)c1 18.6%, COCCCN1C(=O)C(CC(=O)NC2CCCCC2)CC(C(=O)N(C(C)C)C(C)C)=C1C (centres undefined) -11.1%, CCOC(=O)C1(Cc2ccccc2C)CCCN(C(=O)c2cc(C3CC3)[nH]n2)C1 (centres undefined) -8.84%, CCC(=O)Nc1cccc(-c2cc3ccccc3oc2=O)c1 -32.2%, CC(NC(=O)CN1CCCC1)c1ccccc1 (centres undefined) -5.17%, C[C@@H]1CN([C@H](C)CO)C(=O)c2cc(NC(=O)NC3CCCCC3)ccc2O[C@@H](C)CCCCO[C@H]1CN(C)C(=O)Nc1ccc2c(c1)OCO2 0.224%, CCCN(CC(=O)Nc1ccccc1C)C(=O)C1CCN(S(=O)(=O)c2ccc(C)c(C)c2)CC1 6.3%, O=C1c2ccccc2/C(=C\c2ccc(Br)nc2)N1c1ccccc1 -9.39%, C[C@@H]1CN([C@@H](C)CO)C(=O)c2cc(NS(=O)(=O)c3ccc(Cl)cc3)ccc2O[C@@H](C)CCCCO[C@H]1CN(C)CC1CC1 6.24%, COc1cccc(NC(=O)CCN2C(=O)C3CC=CCC3C2=O)c1 (centres undefined) 11.4%, CC(=O)NC(c1cc(Cl)c2cccnc2c1O)C(C)C (centres undefined) -28.1%, COc1ccccc1NC(=O)Nc1nc(CC(=O)N2CCN(c3ccc(F)cc3)CC2)cs1 -14.2%, O=C1CN(C(=O)COC(=O)c2c(F)cccc2Cl)c2ccccc2N1 -6.7%, COC(=O)[C@@H]1[C@H](CCc2ccccc2)NC(=O)N(Cc2ccccc2)[C@@H]1C -7.83%, CS(=O)(=O)c1cccc(-c2nnc(NC(=O)c3ccc(S(=O)(=O)N4CCCC4)cc3)o2)c1 2.36%, Cc1ccc(S(=O)(=O)Nc2ccc3c(c2)CC(=O)N([C@H](C)CO)C[C@H](C)[C@@H](CN(C)C(=O)Nc2cccc4ccccc24)O3)cc1 -6.07%, Cc1ccc(-c2nc(N3CCN(C)CC3)c3ccccc3n2)cc1 12.5%, O=C1NC[C@@H](CCCCN2CCN(Cc3ccccc3)C(=O)C2=O)N(CCC2CCCCC2)C1=O 5.75%, CCCCNC(=O)O[C@H]1C[C@@H]2CCN3C(=O)CCC[C@H]([C@H]1Cc1ccccc1)[C@H]23 -0.558%, Cc1cc(C)c(OCCCNC2CCCC2)c(Br)c1 -6.71%, COc1ccc(C2=Nn3c(nnc3-c3ccccc3Cl)SC2)cc1OCC1CC1 -13.5%, Cc1noc(C)c1NC(=O)Nc1cccc2c1O[C@@H](CN(C)S(=O)(=O)c1ccc(F)cc1)[C@@H](C)CN([C@@H](C)CO)C2=O -5.47%, COc1ccc(OC)c(-c2nnc3n2N=C(c2ccc(OC)c(OC)c2)CS3)c1 -40.5%, Cn1cccc1C(=O)OCC(=O)NC(=O)c1ccc(Cl)cc1 -8.69%, C[C@@H]1CN([C@@H](C)CO)C(=O)Cc2cc(NC(=O)CCCCCC(=O)Nc3ccccc3N)ccc2O[C@@H]1CN(C)Cc1ccc(C(F)(F)F)cc1 -23.6% [at 21 µM], C[C@@H]1CN([C@H](C)CO)C(=O)Cc2cc(NC(=O)Cc3ccccc3)ccc2O[C@@H]1CN(C)Cc1ccc(Cl)c(Cl)c1 -0.832%, COc1cccc(NC(=O)CN(C)C(=O)Cc2ccc3c(c2)OCCO3)c1 4.3%, Cc1noc(C)c1S(=O)(=O)Nc1ccc2c(c1)C(=O)N([C@@H](C)CO)C[C@@H](C)[C@H](CN(C)S(=O)(=O)c1ccccc1)OCCCC[C@@H](C)O2 -19.5%, Cc1nc(C)c(CC(=O)N/N=C/c2ccc(O)cc2)c(=O)[nH]1 -17%, CCC(N=c1cc(-c2ccc(OC)c(OC)c2)oc2ccc(C)cc12)C(=O)O (centres undefined) 7.66%, CC(C)NC(=O)Nc1ccc2c(c1)C(=O)N([C@@H](C)CO)C[C@H](C)[C@H](CN(C)C(=O)Nc1ccc3c(c1)OCO3)O2 3.83%, CCc1nc(SCc2ccccc2C)n[nH]1 -4.43%, COc1cccc(OC)c1-c1cnc(NC(C)=O)cn1 -15.4% [at 10 µM], COc1ccc2c3c([nH]c2c1)[C@H](CO)N(C(=O)c1ccccc1)CC31CN(S(=O)(=O)c2cccs2)C1 12.8%, Nc1ccc2oc(-c3ccccc3Cl)cc(=O)c2c1O 0.572%, O=C(NC(C(=O)N1CCCC1C(=O)NC1CCCC1)c1ccccc1)c1cccs1 (centres undefined) -11.5%, C[C@H](CO)N1C[C@H](C)[C@H](CN(C)C(=O)Nc2ccc(C(F)(F)F)cc2)OCCCC[C@H](C)Oc2ccc(NS(=O)(=O)c3ccc(F)cc3)cc2C1=O 7.18%, CN(C)c1ccc(CC(=O)N2CCCC(c3cc(C(=O)Nc4ccc(F)c(Cl)c4)no3)C2)cc1 (centres undefined) -9.94%, CCOC(=O)C1CCN(C(=O)C2CC(=O)N(c3ccc4c(c3)OCCO4)C2)CC1 (centres undefined) 31.2%, COCC(=O)Nc1ccc2c(c1)C(=O)N(C)C[C@@H](OC)[C@H](C)CN(C(C)=O)[C@H](C)CO2 20.4%, COc1cc(OC)cc(-c2c(-c3cccs3)c3cc(-c4ccn[nH]4)ccc3n2C)c1 21.2%, CCc1cccc(OCCN2CCCC2)c1 -8.33%, O=S(=O)(c1cnc(Cl)c(Cl)c1)N1CCc2ccccc21 -9.93%, CCOC(=O)[C@@H]1[C@H]2COc3ccc(Br)cc3[C@@H]2N2C(=O)N(c3ccc(C)cc3)C(=O)[C@]12C -5.7%
